In PMC2832003:
Like-named read-outs stand apart in the source and are kept apart here. No constants are given. Whether binding was seen depends on the method and setting. For some assays here: Binding seen in cells or lysates may run through a third protein. Some binding calls cover weakened binding; strength is not graded here. Each block holds one molecule with its values, some of them ahead of it.

By UniProt entry, the sequences of proteins in these tests, tags left out. Residues count along the entry.
UniProt P38445, residues 19-513: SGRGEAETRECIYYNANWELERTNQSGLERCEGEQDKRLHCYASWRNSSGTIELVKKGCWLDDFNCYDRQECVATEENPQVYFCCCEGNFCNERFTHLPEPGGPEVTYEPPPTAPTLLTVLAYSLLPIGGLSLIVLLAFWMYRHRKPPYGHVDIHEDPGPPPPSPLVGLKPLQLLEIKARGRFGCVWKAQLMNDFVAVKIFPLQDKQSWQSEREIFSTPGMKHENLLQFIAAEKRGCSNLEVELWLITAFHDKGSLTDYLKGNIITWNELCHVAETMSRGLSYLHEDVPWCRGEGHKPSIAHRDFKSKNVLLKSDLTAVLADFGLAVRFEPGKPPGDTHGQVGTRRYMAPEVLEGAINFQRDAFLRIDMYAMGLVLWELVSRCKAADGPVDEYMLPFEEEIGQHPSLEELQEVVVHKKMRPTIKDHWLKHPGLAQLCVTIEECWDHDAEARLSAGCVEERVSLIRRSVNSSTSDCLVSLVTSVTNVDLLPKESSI
UniProt P08476, residues 311-426: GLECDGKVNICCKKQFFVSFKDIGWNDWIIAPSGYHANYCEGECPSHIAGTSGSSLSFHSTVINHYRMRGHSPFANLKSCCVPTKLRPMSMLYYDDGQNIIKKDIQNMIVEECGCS

What was measured:
rat ActRIIB-HA (rat) = rat ActRIIB-HA (rat) (UniProt P38445); test: co-IP; COS7 cells transfected with rat ActRIIB-HA and either betaglycan-c-myc or empty pcDNA3, treated 2 h with 100 ng/ml ligand in concentrated media, lysed, anti-HA precipitation, blot with anti-βA polyclonal antibody
[1] = biological target: human activin/inhibin βA-subunit (mature) (human) (UniProt P08476); test: non-reducing SDS-PAGE and immunoblot of secreted dimers; conditioned media of stably transfected CHO cells, 4-12% SDS-PAGE under non-reducing (and reducing) conditions, detected with anti-βA polyclonal or anti-α-subunit PO23 antibody
[2] = biological target: chicken inhibin α-subunit (mature αC) (chicken) (UniProt P43031); test: tandem MS-MS of a band from a non-reducing gel; medium of cells expressing the chicken free α-subunit, precipitated with PO23, non-reducing SDS-PAGE, 30 kDa band digested with trypsin
[3] = biological target: chicken inhibin α-subunit (mature αC) (chicken) (UniProt P43031); test: non-reducing SDS-PAGE and immunoblot of secreted dimers; conditioned media of stably transfected CHO cells, 4-12% SDS-PAGE under non-reducing (and reducing) conditions, detected with anti-βA polyclonal or anti-α-subunit PO23 antibody
[4] = biological target: human activin/inhibin βA-subunit (mature) (human) (UniProt P08476); test: as above; remark: listed apart in the source
[5] = biological target: chicken inhibin α-subunit (mature αC) (chicken) (UniProt P43031); test: immunoprecipitation of [35S]-cysteine-labelled media, non-reducing SDS-PAGE and autoradiography; media of cells labelled 48 h with [35S]-cysteine, precipitated with anti-α-subunit monoclonal PO23 or normal mouse IgG, Protein G Sepharose, 4-12% non-reducing gel
[6] = biological target: human inhibin α-subunit (mature αC) (human) (UniProt P05111); test: as above

binding (rat ActRIIB-HA (rat)): binds
Molecule: wild type chicken inhibin A (α^Chwt/βA) (from UniProt P43031 217-329; P08476 311-426) (complex)

binding [1]: binds
Molecule: human activin/inhibin βA-subunit (mature) (from UniProt P08476 311-426)

binding [2]: binds weakly
binding [3]: binds weakly
binding [4]: binds
binding [5]: binds weakly
B1: chicken inhibin α-subunit (mature αC) (protein, UniProt P43031 217-329)
chain: SAVPWSPAALSLLQRPSEDVAAHTNCRRASLNISFEELGWDNWIVHPSSFVFHYCHGNCAEGHGLSHRLGVQLCCAALPGTMRSLRVRTTSDGGYSFKYETVPNILAQDCTCV

binding [4]: binds
binding [6]: no binding
B2: human inhibin α-subunit (mature αC) (protein, UniProt P05111 233-366)
chain: STPLMSWPWSPSALRLLQRPPEEPAAHANCHRVALNISFQELGWERWIVYPPSFIFHYCHGGCGLHIPPNLSLPVPGAPPTPAQPYSLLPGAQPCCAALPGTMRPLHVRTTSDGGYSFKYETVPNLLTQHCACI
